Earlier results, collected in patent US8974801B2, “Long term sustained release pharmaceutical composition containing aqueous suspension of bisphosphonate” (priority 2006, dated 2015).
Some results were stated once for a whole list of compounds, not compound by compound.

Settings: under the best conditions; cited from earlier work

For `O=P(O)(O)C(O)(Cc1cccnc1)P(=O)(O)O` [Actonel], the oral bioavailability is listed as “less than 1%”.
